Experimental data published in publication doi:10.1101/2020.09.21.306522.
No constants are given. Whether binding was seen depends on the method and setting. Binding seen in cells or lysates may run through a third protein. Where a sequence is shown, tags or fusion partners need not be part of it.

The chains behind the UniProt entries cited, without tags or fusion partners.
UniProt Q9ULV4: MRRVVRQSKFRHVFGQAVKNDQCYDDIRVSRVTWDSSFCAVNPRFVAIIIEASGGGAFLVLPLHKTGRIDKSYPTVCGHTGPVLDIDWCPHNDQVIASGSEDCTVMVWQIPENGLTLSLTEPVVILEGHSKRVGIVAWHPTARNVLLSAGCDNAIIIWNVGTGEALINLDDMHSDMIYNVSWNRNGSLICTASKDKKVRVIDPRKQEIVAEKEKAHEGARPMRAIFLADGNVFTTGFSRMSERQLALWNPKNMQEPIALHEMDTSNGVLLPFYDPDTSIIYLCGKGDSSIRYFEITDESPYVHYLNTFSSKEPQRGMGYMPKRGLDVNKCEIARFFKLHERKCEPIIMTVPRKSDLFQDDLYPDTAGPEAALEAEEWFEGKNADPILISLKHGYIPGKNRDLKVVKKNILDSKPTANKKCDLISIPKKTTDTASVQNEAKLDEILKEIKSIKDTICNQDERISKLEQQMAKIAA

Target: T1, GFP-tagged MICAL1 (human) (UniProt Q8TDZ2)
T1 sequence: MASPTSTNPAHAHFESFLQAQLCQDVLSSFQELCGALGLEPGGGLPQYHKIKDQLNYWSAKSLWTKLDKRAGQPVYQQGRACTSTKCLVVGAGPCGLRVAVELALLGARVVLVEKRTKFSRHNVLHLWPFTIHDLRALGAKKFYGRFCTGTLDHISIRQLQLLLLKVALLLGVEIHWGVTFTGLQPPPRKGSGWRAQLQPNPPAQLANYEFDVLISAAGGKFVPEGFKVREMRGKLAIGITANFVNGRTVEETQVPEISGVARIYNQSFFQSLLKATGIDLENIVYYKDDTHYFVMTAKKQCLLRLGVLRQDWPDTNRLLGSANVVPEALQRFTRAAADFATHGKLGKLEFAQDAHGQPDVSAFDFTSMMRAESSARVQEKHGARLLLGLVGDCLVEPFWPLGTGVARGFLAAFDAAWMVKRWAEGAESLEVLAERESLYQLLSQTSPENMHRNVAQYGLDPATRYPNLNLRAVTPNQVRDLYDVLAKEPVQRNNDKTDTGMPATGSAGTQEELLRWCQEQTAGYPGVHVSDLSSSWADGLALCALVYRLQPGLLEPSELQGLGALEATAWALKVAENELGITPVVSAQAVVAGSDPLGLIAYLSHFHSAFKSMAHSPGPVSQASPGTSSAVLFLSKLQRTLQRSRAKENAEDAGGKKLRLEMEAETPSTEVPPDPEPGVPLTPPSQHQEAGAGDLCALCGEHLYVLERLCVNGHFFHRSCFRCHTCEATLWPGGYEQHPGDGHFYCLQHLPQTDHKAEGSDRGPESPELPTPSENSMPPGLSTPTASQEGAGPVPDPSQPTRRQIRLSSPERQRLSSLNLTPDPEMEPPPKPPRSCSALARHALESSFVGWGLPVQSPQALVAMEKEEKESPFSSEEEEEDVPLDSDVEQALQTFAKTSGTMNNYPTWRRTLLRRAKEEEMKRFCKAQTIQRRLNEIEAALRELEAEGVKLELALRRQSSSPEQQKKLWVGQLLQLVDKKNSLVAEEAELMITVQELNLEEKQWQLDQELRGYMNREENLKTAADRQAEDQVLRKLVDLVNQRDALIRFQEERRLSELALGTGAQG
Test: co-IP

Question: How did the binding turn out when coronin-1C (from UniProt Q9ULV4 1-474) was run?
Answer: The binding was “no binding”.
